The record followed here is patent US10802031B2, “Marker for determining diabetic nephropathy” (TOHOKU UNIVERSITY, priority 2015, dated 2020).

Where a name gives a salt, the structure may show the parent alone. Marks after values point to notes of the source that are not given here.

A short description of the data set: Urine phenyl sulfate salt (PS) concentration in test subjects grouped by ACR. As to the method: Plasma samples and urine samples were collected from 316 test subjects (including 143 males and 173 females) and the test subjects were tested for gender and eleven items (a phenyl sulfate salt [PS] concentration, a heart rate, a plasma glucose concentration, a hemoglobin A1c [HbA1c] value, a urine pH value, an estimated glomerular filtration rate [eGFR], a urinary albumin/creatinine ratio [ACR], a triglyceride [TG] level, a uric acid [UA] level, a blood urea nitrogen [BUN] level, and a pulse wave velocity [PWV] value). Multiple regression analysis was performed with the PS concentration used as a dependent function and with twelve values, that is, test values of the other ten items excluding the PS concentration and values corresponding to the age and the gender, used as independent variables. As a result, the PS concentration was more highly correlated with ACR corresponding to an index of early diabetic nephropathy than a plasma glucose concentration (p=0.343) and the HbA1c value (p=0.351) corresponding to indexes of diabetes, the eGFR (p=0.512) and the BUN level (p=0.046) corresponding to indexes of renal function, the TG level (p=0.368) corresponding to an index of liver function, the UA level (p=0.524) corresponding to an index of gout, or the PWV value (0.213) corresponding to an index of arteriosclerosis.
Joint Committee on Diabetic Nephropathy prescribed, in December 2013, a novel early diagnostic criterion that “a patient showing ACR of 30 to 299 mg/g is diagnosed with early diabetic nephropathy”. Therefore, the test subjects were classified into groups respectively showing ACR of 0 to less than 30 (mg/g) (normal albuminuria), of 30 to 299 (mg/g) (microalbuminuria), and of not less than 300 (mg/g) (overt albuminuria) (respectively designated as a pre-nephropathy group, an early nephropathy group, and an overt nephropathy group), and the correlation with the PS concentration was checked (Table 1).

Turning to `O=S(=O)(O)Oc1ccccc1` [PS, phenyl sulfate], the “Urine PS concentration” value is 53.3 nmol/mL (ACR 0 to less than 30 mg/g (pre-nephropathy group), 182 test subjects); 40.1 nmol/mL (ACR 30 to 299 mg/g (early nephropathy group), 89 test subjects); 91.0*** nmol/mL (ACR not less than 300 mg/g (overt nephropathy group), 44 test subjects).
